Experimental findings from article PMC7997971 are described below.

Sequences of proteins named here, by UniProt entry; tags and fusion partners are left off. A change or cut given only in a name is not applied to a line headed by its entry.
UniProt O81742: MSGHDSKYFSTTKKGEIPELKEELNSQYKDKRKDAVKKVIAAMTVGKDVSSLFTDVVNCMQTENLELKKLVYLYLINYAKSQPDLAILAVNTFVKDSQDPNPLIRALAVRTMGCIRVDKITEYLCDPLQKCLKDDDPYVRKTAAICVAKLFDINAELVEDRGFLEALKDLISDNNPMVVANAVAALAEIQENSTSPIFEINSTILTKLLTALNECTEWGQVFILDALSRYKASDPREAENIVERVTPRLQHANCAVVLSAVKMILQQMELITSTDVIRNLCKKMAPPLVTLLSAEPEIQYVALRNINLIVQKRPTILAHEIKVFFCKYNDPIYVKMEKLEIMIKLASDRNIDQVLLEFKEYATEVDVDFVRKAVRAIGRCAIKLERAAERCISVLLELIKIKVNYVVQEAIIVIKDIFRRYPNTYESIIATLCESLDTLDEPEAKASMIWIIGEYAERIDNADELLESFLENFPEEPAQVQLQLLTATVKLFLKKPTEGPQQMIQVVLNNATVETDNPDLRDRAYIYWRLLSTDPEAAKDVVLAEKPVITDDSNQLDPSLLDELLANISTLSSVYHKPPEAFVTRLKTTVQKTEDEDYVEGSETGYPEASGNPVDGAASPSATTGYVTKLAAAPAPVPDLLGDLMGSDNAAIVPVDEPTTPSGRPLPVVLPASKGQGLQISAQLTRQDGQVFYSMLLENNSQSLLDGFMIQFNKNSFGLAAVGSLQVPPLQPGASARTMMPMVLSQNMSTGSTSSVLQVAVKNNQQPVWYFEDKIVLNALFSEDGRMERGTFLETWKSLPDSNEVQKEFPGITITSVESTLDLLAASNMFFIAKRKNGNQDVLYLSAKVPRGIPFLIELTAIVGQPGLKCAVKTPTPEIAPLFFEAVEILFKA
UniProt Q9SUS3: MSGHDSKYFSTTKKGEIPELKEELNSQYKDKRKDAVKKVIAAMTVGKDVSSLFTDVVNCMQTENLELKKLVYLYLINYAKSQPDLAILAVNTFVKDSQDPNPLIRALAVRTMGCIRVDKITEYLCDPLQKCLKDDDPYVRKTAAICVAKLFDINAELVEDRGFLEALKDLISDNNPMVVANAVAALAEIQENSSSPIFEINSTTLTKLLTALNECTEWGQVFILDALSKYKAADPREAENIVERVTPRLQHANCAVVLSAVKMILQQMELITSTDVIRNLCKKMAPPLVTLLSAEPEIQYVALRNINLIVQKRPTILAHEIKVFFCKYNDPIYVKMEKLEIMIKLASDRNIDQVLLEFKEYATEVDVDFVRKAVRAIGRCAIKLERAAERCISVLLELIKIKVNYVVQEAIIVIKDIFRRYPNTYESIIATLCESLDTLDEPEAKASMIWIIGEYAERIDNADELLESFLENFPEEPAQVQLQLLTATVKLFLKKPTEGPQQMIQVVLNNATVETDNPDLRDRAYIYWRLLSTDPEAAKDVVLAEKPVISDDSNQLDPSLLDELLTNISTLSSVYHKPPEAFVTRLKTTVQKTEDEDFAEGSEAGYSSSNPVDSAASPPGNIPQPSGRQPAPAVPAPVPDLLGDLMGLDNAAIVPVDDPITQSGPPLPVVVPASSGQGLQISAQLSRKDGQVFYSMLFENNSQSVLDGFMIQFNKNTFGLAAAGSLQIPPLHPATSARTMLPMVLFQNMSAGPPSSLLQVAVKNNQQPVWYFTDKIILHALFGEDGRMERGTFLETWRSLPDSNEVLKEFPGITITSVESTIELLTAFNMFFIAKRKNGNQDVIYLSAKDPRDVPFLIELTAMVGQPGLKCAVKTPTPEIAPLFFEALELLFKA
UniProt Q0WNJ6: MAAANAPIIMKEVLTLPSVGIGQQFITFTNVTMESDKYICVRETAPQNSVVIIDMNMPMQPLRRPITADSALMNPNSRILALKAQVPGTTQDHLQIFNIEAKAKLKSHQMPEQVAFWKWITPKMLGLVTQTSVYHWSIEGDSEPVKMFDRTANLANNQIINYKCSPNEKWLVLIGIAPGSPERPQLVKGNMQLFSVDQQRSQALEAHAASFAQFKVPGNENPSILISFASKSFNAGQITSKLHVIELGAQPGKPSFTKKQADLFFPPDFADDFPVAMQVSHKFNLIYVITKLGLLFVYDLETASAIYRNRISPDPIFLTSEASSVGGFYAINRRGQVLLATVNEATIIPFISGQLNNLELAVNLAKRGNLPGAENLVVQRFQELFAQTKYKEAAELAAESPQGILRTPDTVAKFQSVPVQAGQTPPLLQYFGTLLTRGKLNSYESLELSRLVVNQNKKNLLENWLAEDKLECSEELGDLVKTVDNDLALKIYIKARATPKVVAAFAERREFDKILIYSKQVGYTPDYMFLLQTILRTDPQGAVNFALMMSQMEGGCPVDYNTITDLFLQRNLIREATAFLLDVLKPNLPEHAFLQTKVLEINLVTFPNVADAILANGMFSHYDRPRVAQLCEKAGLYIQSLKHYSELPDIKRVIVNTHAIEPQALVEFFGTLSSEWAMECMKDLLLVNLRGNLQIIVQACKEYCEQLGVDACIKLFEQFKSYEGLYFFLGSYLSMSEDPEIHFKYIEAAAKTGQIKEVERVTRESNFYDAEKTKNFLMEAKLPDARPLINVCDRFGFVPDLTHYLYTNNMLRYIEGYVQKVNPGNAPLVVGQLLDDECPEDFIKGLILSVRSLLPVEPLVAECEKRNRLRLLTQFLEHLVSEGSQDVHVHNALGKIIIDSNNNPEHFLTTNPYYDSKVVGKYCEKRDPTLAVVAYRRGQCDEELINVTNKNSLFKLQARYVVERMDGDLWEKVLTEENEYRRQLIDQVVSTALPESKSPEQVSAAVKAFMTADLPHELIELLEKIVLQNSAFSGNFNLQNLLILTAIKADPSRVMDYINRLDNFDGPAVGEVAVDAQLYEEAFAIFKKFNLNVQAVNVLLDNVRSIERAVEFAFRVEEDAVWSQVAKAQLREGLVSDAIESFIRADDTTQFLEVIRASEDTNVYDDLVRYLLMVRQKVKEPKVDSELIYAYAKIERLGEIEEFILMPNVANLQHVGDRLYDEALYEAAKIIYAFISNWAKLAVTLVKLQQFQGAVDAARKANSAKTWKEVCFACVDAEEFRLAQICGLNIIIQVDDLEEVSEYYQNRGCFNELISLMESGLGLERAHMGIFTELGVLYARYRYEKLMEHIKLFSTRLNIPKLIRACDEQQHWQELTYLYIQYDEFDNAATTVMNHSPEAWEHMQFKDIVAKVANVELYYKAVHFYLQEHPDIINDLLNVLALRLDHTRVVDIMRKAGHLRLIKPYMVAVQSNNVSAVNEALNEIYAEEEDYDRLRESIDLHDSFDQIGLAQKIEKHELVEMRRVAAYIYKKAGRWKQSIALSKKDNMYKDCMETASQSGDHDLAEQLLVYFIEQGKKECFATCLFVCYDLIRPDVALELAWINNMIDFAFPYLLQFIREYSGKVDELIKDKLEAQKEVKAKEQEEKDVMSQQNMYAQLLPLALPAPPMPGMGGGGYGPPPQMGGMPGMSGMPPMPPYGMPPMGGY
UniProt Q9LDK9: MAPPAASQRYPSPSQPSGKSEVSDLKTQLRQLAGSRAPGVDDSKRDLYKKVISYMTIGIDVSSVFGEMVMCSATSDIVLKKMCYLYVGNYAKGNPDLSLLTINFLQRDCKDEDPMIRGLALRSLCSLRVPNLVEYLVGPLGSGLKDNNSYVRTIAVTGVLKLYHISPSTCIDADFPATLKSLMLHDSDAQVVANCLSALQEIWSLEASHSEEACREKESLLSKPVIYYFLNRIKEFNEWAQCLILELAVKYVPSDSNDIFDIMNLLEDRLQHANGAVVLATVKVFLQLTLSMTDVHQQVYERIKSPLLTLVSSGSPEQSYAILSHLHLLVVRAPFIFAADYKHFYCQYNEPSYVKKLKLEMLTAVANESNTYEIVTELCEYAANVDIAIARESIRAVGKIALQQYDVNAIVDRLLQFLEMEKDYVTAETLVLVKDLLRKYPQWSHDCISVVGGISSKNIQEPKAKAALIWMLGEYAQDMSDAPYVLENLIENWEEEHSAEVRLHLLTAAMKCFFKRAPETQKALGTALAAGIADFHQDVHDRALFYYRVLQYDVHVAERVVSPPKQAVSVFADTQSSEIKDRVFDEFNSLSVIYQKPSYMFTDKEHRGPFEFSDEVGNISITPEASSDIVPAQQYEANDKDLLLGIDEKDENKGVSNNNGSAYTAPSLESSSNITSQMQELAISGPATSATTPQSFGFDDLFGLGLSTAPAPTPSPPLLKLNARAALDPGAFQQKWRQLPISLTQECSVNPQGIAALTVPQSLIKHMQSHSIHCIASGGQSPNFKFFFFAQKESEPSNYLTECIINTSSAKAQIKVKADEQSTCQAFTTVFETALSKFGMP

Assay [1] deals with T1, amino-terminal domain of CHC2 (clathrin heavy chain 2), GAL4 BD fusion (Arabidopsis thaliana) (UniProt Q0WLB5).
T1 sequence: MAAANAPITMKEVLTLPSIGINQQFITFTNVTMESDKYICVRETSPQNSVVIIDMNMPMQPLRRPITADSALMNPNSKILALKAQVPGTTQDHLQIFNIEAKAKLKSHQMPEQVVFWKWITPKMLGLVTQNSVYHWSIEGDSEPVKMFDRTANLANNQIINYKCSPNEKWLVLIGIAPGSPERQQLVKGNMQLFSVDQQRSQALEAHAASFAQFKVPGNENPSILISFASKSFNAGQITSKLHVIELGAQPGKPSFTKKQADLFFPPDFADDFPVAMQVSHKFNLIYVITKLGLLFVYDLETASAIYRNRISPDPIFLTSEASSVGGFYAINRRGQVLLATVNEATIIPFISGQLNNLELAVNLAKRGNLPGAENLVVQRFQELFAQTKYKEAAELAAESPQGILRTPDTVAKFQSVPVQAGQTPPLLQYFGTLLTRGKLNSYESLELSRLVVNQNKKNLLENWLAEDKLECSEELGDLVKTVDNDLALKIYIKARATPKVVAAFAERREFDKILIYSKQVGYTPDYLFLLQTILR
Nature of the assay: two-hybrid; GAL4 AD fusions of AP large subunits against GAL4 BD-CHC2 NTD in S. cerevisiae AH109; growth on medium lacking Leu, Trp, His and adenine, 4 days at 30 °C; five independent colonies.

The target in assay [2] is T2, AP4M-GFP (mu subunit of AP-4, GFP-tagged) (Arabidopsis thaliana) (UniProt Q9SB50).
T2 sequence: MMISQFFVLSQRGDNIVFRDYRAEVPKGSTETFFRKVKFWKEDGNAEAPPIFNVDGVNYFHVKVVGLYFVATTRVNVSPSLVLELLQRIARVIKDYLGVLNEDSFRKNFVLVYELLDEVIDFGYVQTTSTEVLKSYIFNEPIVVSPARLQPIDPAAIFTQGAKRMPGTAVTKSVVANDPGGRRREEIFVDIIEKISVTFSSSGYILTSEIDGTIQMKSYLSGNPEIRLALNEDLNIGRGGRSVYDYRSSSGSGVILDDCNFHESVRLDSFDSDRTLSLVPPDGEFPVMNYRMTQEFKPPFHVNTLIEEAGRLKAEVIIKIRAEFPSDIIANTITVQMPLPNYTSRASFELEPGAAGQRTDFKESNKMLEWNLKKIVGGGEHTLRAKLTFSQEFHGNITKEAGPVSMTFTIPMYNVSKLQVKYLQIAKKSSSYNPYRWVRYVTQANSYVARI
Nature of the assay: co-IP; lysates of 14 DAG A. thaliana seedlings expressing GFP fusions (50 mM Tris-HCl pH 7.5, 1 mM EDTA, 1% Triton X-100, no NaCl); anti-GFP immunoprecipitation (μMACS GFP Isolation Kit); immunoblot with anti-CHC. (In western blotting, separated proteins are transferred to a membrane and probed.)

In assay [3] the target is T3, AP1M2-GFP (mu subunit of AP-1, GFP-tagged) (Arabidopsis thaliana) (UniProt O22715).
T3 sequence: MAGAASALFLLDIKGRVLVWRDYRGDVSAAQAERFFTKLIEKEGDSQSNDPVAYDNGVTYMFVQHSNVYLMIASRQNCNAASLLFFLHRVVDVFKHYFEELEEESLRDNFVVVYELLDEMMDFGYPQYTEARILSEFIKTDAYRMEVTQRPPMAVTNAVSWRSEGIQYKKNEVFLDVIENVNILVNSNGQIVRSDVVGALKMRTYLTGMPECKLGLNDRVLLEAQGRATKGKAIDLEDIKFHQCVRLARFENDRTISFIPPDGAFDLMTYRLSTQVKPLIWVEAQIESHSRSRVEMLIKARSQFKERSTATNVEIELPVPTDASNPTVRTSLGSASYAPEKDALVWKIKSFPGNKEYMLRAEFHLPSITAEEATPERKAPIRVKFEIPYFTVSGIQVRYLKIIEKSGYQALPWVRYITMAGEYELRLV
The description is as above.

These are yes or no findings as the source states them, for the method shown. Binding calls can cover weak binding; strength is not graded here. Tags and fused reporters may be left off the sequences shown. For some of these results: In cells and extracts the contact can be indirect.

With “AP1B2 (beta subunit of AP-1), GAL4 AD fusion (from UniProt O81742)”, the binding result in assay [1] is “no binding”. In the case of “AP1G1 (gamma subunit of AP-1), GAL4 AD fusion (Arabidopsis thaliana)”, in assay [1], the binding entry is “binds”. Same read-out and setting: the result for “AP1G2 (gamma subunit of AP-1), GAL4 AD fusion (Arabidopsis thaliana)” reads “binds”; that for “AP1B1 (beta subunit of AP-1), GAL4 AD fusion (from UniProt Q9SUS3)”, “no binding”.

Regarding “clathrin heavy chain (CHC), endogenous (from UniProt Q0WNJ6)”, the binding result is given as “binds weakly” in assay [2] and “binds” in assay [3]. Regarding “AP4B (beta subunit of AP-4), GAL4 AD fusion (from UniProt Q9LDK9)”, the binding entry in assay [1] is recorded as “no binding”.
